# Key:
# Assay in all cases: MTT assay
# Assay type in all cases: cell-based
# Hep3B = settings: Homo sapiens, 48 h, read-out: IC50 (μM) ± SD Hep3B
# Method: (§1) Cells at a density of 4×10^3 cells/well were inoculated into 96-well plates for overnight culture at 37°C. […] Then, 100 μL of a 0.5 mg/mL MTT solution was pipetted into each well, and the incubation was prolonged for 4 h, resulting in the formation of a purple precipitate. Afterward, 200 μL of DMSO was added to each well, and the plate was vortexed for 10 min. The absorbance at 570 nm was determined with a Synergy 4 microplate reader (BioTek, United States). Each experiment was performed three times under the same conditions.
# HepG2/MDR = settings: Homo sapiens, HepG2, 48 h, read-out: IC50 (μM) ± SD HepG2/MDR
# Method: as §1
# HepG2 = settings: Homo sapiens, HepG2, 48 h, read-out: IC50 (μM) ± SD HepG2
# Method: as §1
# Huh7 = settings: Homo sapiens, Huh-7, 48 h, read-out: IC50 (μM) ± SD Huh7
# Method: as §1
# SNU449 = settings: Homo sapiens, SNU-449, 48 h, read-out: IC50 (μM) ± SD SNU449
# Method: as §1
# [1] = tested on: normal human liver cell line L02; settings: 48 h, read-out: IC50 L02
# Method: as §1
compound,measurement,setting,value
"O=C(CCCCCCC(=O)Nc1ccccc1)NO [SAHA, Vorinostat, reference compound]",IC50,Hep3B,1.25 ± 0.11 µM
same,IC50,HepG2/MDR,6.84 ± 0.52 µM
same,IC50,HepG2,0.98 ± 0.06 µM
same,IC50,Huh7,1.43 ± 0.08 µM
same,IC50,SNU449,2.07 ± 0.22 µM
same,IC50,[1],79000 ± 6310 nM
